Experimental data taken from publication PMC12774657.
No constants are given. Whether binding was seen depends on the method and setting. A result given as binding can be weak or reduced; the word gives no strength.

Chains of the proteins cited; added tags and fusions are not shown. Lines headed by an entry give the natural chain unless they say otherwise; changes in a name come on top. Residues count along the entry.
UniProt P27540, 1-503, stated change not applied: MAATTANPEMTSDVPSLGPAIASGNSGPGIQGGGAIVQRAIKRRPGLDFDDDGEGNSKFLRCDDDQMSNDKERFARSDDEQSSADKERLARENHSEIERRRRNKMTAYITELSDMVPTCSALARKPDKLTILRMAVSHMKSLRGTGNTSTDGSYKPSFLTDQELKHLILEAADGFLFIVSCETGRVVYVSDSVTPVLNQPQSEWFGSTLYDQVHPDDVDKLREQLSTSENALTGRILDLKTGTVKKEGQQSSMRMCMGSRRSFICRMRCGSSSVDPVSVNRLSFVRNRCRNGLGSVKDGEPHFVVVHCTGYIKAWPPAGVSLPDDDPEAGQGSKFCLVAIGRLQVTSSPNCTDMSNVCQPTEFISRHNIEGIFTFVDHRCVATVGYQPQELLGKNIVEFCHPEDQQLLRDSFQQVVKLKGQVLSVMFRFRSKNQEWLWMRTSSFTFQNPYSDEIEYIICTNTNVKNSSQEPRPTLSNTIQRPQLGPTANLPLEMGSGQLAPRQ

Molecular target: Gal4DBD-ARNT (1–503)-2Myc (UniProt P27540)
Test: two-hybrid

Substance: SIM1.R171H (1–438) fused to the VP64-p65-RTA (VPR) activation domain (from UniProt P81133) (domain or fragment)
- binding: binds
